Measured values taken from PubChem BioAssay (NCATS).
The inconclusive results got no clear call from the source; some entries with a clear call stand among them for comparison. Calls of active or inactive are those of the source. The call rests on the fitted dose curve; in most records, active means well fitted curve in either direction with a large enough effect (not every such curve was filed as active); inconclusive means small, poorly fitted or top-dose-only effect, or another doubt; inactive means flat fitted curve, though single readings scatter.

assay: Stat Signaling Pathway (AID 446); conditions: ME-180 (cervical carcinoma) SIE beta-lactamase reporter, IL-6 stimulated, 5 h; at 7.69 µM (top of the series) unless noted;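 further: ME-180 cervical cancer cells given 40 pM IL-6 alongside compound; SIE-controlled beta-lactamase reporter measured as 460/530 nm FRET emission ratio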
In short: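 Overnight-plated ME-180 cells bearing a STAT Inducible Element beta-lactamase reporter; 5 h co-exposure to compound and 40 pM IL-6; values normalized to 300 pM IL-6 and 125 nM JAK inhibitor controls.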
On the % scale 0 is the no-effect control and ±100 the full control effect.

activity, negative = inhibition, inconclusive:
COc1ccc(CCCNC(=O)CC#N)cc1OC 79.6% [activator] [at 17.2 µM]

activity, negative = inhibition, inactive:
C[C@H](Br)C(=O)c1ccc2cc(Br)c3ccccc3c2c1 -2.19%, NC(=O)CS(=O)C[C@H](N)C(=O)O (stereo partly drawn) 5.38%, CC(C)[C@H](N=Cc1ccccc1O)C(=O)O -0.012%, Cc1ncc(CSC(=N)N)n1Cc1ccccc1 4.51%, COC(=O)C(NC(C)=O)(Nc1nc2c(s1)CCCC2)C(F)(F)F (stereo not drawn) -8.22% [at 17.2 µM], O=C(O)C1[C@H]2C(=O)N(Cc3cccs3)C[C@]23C=C[C@H]1O3 (stereo partly drawn) 2.6% [at 17.2 µM], CCN(CC)CCCN1C(=O)C(O)=C(C(=O)c2ccc(C)o2)C1c1ccc(C)o1 (stereo not drawn) 9.39% [at 17.2 µM]
